Among the data in patent US20250270306A1 (OSPEDALE SAN RAFFAELE S R L, published 2025) are binding values, retold here.

Protein sequences, listed by entry. Tags and fused reporters are not part of them. Residues count along the entry.
UniProt P47878, residues 28-292: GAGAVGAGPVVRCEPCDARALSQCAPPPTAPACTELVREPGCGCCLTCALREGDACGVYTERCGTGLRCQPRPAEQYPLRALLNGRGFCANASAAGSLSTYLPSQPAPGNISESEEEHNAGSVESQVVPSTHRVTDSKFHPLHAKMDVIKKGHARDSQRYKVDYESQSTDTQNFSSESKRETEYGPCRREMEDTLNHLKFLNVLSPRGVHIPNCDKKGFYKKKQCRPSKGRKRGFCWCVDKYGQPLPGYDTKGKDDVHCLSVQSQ

The target in experiment [1] is T1, mouse IGFBP3 (mouse, UniProt P47878 28-292, limits assumed).
T1 construct: Bought protein; also called mIGFBP-3; murine IGFBP3
Kind of experiment: BLI (Octet/BLItz).

In experiment [2] the target is T1, mouse IGFBP3. As to the kind of experiment: BLI (Octet/BLItz), antibody captured via Fc on AHC biosensor; BLI, KD on mIGFBP-3 above the limit of 10^-6 M.

These are yes or no findings as the source states them, for the method shown. Some entries that bind do so weakly or less than the wild type.

B1: YU139-A03 (Fc fusion)
VH: QVQLVQSGGGVVQPGRSLRLSCAASGFTFSSYGIHWVRQAPGKGLEWVAIVSYDGRHKYYADSVKGRFTISRDDSKNTIYLQMDSLRAEDTAVYYCAKDSGNSGLEGIHDYWGQGTLVTVSS
VL: DVVMTQSPSSVSASVGDRVTITCRASQGISSWLAWYQQKPGKAPKLLIYAASSLQSGVPSRFSGSGSGTDFTLTISSLQPEDFGTYYCQQANSFPLTFGGGTKVEIK
notes: The format used in the Octet assay is not restated (captured via Fc)
B1: the binding entry with mouse IGFBP3 [1] is on record as “binds”.

B2: YU139-H03 (Fc fusion)
VH: QVQLVQSGAEVKKPGASVKVSCKASGYTFTSYGISWVRQAPGQGLEWMGWISAYNGNTNYAQKLQGRVTMTTDTSTSTAYMELRSLRSDDTAVYYCARVKWELGWAFDIWGQGTMVTVSS
VL: QAVLTQPPSVSGAPGQRVTISCTGSSSNIGAGYDVHWYQQLPGTAPKLLIYGNSNRPSGVPDRFSGSKSGTSAPLAITGLQAEDEADYYCQSYDSSLSTVFGGGTKLTVL
notes: as for B1
For the molecule B2, in the experiment with mouse IGFBP3 [2], the binding result is recorded as “no binding (tested: 10^-6 M)”.

B3: YU139-G03 (Fc fusion)
VH: QVQLQQSGAEVKKPGSSVKVSCKASGGIFSTYVTSWVRQAPGQGLEWMGGIIPMFDTTEYAQKLEGRVTITVDESTNTAYMELSSLRFEDTAVYYCARAGGLSHFDYWGQGTLVTVSS
VL: EIVLTQSPLSLPVTPGEPASISCRSSQSLLHSNGNNYLNWYLQKPGQSPQLLIYLSSRRASGVPDRFSGSGSGTDFTLKISRVEAEDVGVYYCMQGLQTPWTFGQGTKVETK
With B3, the binding entry with mouse IGFBP3 [1] is recorded as “binds”.

B4: YU139-C01 (Fc fusion)
VH: QVQLVQSGAEVKKPGASVKVSCKASGYTFTSYGISWVRQAPGQGLEWMGWINTYNGNTNYAQKLQGRVTMTTDTSTTTAYMELRSLRSDDTAVYYCARDIGYSGSYYSPYYYYGMDVWGQGTTVTVSS
VL: SSELTQDPAVSVALGQTVRITCQGDGLRNYFASWYQQKPGQAPVLVIYGKNNRPSGIPDRFSGSSSGNTASLRIAGAQAEDEADYYCNSRDGSGKHLVFGGGTKLTV
notes: The format used in the Octet assay is not restated (captured via Fc); also called Yu139-CO1
For B4, in the experiment with mouse IGFBP3 [1], the binding result was “binds”.
